# Results from the supplement of paper PMC8728848.
# This is one part of the list.
# B1: HopZSSI-T (Helicobacter pylori), B5Z6D0 (protein)
# chain: MGSSHHHHHHSSGLVPRGSHMENLYFQGEDNGFFISAGYQIGEAAQMVKNTGELKKLSDTYENLSNLLTNFNNLNQAVTNASSPSEINAAIDNLKANTQGLTGEKTNSPAYQAVYLALNAAVGLWNVIAYNVQCGPGNSSQQSVTFEGQPGHNSSSINCNLTGYNNGVSGPLSIDNFKQLNQAYQVLQQALKQGVPVLNNTNQKIEVKVTTQTNGQSSKETTTTTTTNDAQTLLQEASKMIDVLTTNCPWVNHNPGQNGGAPWGLIRQECVSGFATEFSAVTSMIKNAQEIVTQAQSLNANQNNQNAPQDFNPYTSADRAFAQNMLNHAQAQAKILELADQMKKDLNTIPSQFITNYLAACRIDGTTPSQGVTNNTWGAGCAYVEETITALNNSLAHFGTQAEQIKQSELLARTILDFRGSLSTLNSTYNSITTTASNTPNSPFLKNLISQSTNPNNPGGLQAVYQVNQSAYSQLLSATQELGHNPFRRIGLISSQT
# Key:
# Test in all cases: glycan array binding signal (z-score within array); higher = stronger binding
# Conditions in all cases: glycan notation: IUPAC condensed, linker removed
# [1] = molecular target: Neu5Ac(a2-3)Gal(b1-4)GlcNAc(b1-6)GalNAc
# Method in brief: (§1)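 The Consortium for Functional Glycomics database supplied 3228 glycan arrays, of which those lacking an available protein sequence were dropped. The binding signal, a within-array Z-score, was averaged across arrays of the same protein sequence and across linkers. Negative scores can be read as non-binding.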
# [2] = molecular target: Neu5Ac(a2-3)Gal(b1-4)GlcNAc(b1-6)[Gal(b1-3)]GalNAc
# Method in brief: as §1
# [3] = molecular target: Neu5Ac(a2-3)Gal(b1-4)GlcNAc(b1-6)[Neu5Ac(a2-3)Gal(b1-3)]GalNAc
# Method in brief: as §1
# [4] = molecular target: Neu5Ac(a2-3)Gal(b1-4)GlcNAc6S
# Method in brief: as §1
# [5] = molecular target: Neu5Ac(a2-3)Gal(b1-4)[Fuc(a1-3)]GlcNAc
# Method in brief: as §1
# [6] = molecular target: Neu5Ac(a2-3)Gal(b1-4)[Fuc(a1-3)]GlcNAc(b1-2)Man
# Method in brief: as §1
# [7] = molecular target: Neu5Ac(a2-3)Gal(b1-4)[Fuc(a1-3)]GlcNAc(b1-3)Gal
# Method in brief: as §1
# [8] = molecular target: Neu5Ac(a2-3)Gal(b1-4)[Fuc(a1-3)]GlcNAc(b1-3)Gal(b1-4)GlcNAc
# Method in brief: as §1
# [9] = molecular target: Neu5Ac(a2-3)Gal(b1-4)[Fuc(a1-3)]GlcNAc(b1-3)Gal(b1-4)[Fuc(a1-3)]GlcNAc(b1-3)Gal(b1-4)[Fuc(a1-3)]GlcNAc
# Method in brief: as §1
# [10] = molecular target: Neu5Ac(a2-3)Gal(b1-4)[Fuc(a1-3)]GlcNAc(b1-3)GalNAc
# Method in brief: as §1
# [11] = molecular target: Neu5Ac(a2-3)Gal(b1-4)[Fuc(a1-3)]GlcNAc(b1-6)[Gal(b1-3)]GalNAc
# Method in brief: as §1
# [12] = molecular target: Neu5Ac(a2-3)Gal(b1-4)[Fuc(a1-3)]GlcNAc(b1-6)[Neu5Ac(a2-3)Gal(b1-3)]GalNAc
# Method in brief: as §1
# [13] = molecular target: Neu5Ac(a2-3)Gal(b1-4)[Fuc(a1-3)]GlcNAc6S
# Method in brief: as §1
# [14] = molecular target: Neu5Ac(a2-3)Gal6S(b1-4)GlcNAc
# Method in brief: as §1
# [15] = molecular target: Neu5Ac(a2-3)Gal6S(b1-4)[Fuc(a1-3)]GlcNAc
# Method in brief: as §1
# [16] = molecular target: Neu5Ac(a2-3)GalNAc
# Method in brief: as §1
# [17] = molecular target: Neu5Ac(a2-3)GalNAc(b1-4)GlcNAc
# Method in brief: as §1
# [18] = molecular target: Neu5Ac(a2-3)[GalNAc(b1-4)]Gal(b1-4)Glc
# Method in brief: as §1
# [19] = molecular target: Neu5Ac(a2-3)[GalNAc(b1-4)]Gal(b1-4)GlcNAc
# Method in brief: as §1
# [20] = molecular target: Neu5Ac(a2-3)[GalNAc(b1-4)]Gal(b1-4)GlcNAc(b1-3)GalNAc
# Method in brief: as §1
# [21] = molecular target: Neu5Ac(a2-3)[Neu5Ac(a2-6)]GalNAc
# Method in brief: as §1
# [22] = molecular target: Neu5Ac(a2-6)Gal
# Method in brief: as §1
# [23] = molecular target: Neu5Ac(a2-6)Gal(b1-3)GlcNAc(b1-3)[Gal(b1-4)GlcNAc(b1-6)]Gal(b1-4)Glc
# Method in brief: as §1
# [24] = molecular target: Neu5Ac(a2-6)Gal(b1-4)Glc
# Method in brief: as §1
# [25] = molecular target: Neu5Ac(a2-6)Gal(b1-4)GlcNAc
# Method in brief: as §1
# [26] = molecular target: Neu5Ac(a2-6)Gal(b1-4)GlcNAc(b1-2)Man
# Method in brief: as §1
# [27] = molecular target: Neu5Ac(a2-6)Gal(b1-4)GlcNAc(b1-2)Man(a1-3)Man(b1-4)GlcNAc(b1-4)GlcNAc
# Method in brief: as §1
# [28] = molecular target: Neu5Ac(a2-6)Gal(b1-4)GlcNAc(b1-2)Man(a1-3)[Gal(b1-4)GlcNAc(b1-2)Man(a1-6)]Man(b1-4)GlcNAc(b1-4)GlcNAc
# Method in brief: as §1
# [29] = molecular target: Neu5Ac(a2-6)Gal(b1-4)GlcNAc(b1-2)Man(a1-3)[GlcNAc(b1-2)Man(a1-6)]Man(b1-4)GlcNAc(b1-4)GlcNAc
# Method in brief: as §1
# [30] = molecular target: Neu5Ac(a2-6)Gal(b1-4)GlcNAc(b1-2)Man(a1-3)[GlcNAc(b1-4)][Neu5Ac(a2-6)Gal(b1-4)GlcNAc(b1-2)Man(a1-6)]Man(b1-4)GlcNAc(b1-4)GlcNAc
# Method in brief: as §1
# [31] = molecular target: Neu5Ac(a2-6)Gal(b1-4)GlcNAc(b1-2)Man(a1-3)[Man(a1-6)]Man(b1-4)GlcNAc(b1-4)GlcNAc
# Method in brief: as §1
# [32] = molecular target: Neu5Ac(a2-6)Gal(b1-4)GlcNAc(b1-2)Man(a1-3)[Neu5Ac(a2-3)Gal(b1-4)GlcNAc(b1-2)Man(a1-6)]Man(b1-4)GlcNAc(b1-4)GlcNAc
# Method in brief: as §1
# [33] = molecular target: Neu5Ac(a2-6)Gal(b1-4)GlcNAc(b1-2)Man(a1-3)[Neu5Ac(a2-6)Gal(b1-4)GlcNAc(b1-2)Man(a1-6)]Man(b1-4)GlcNAc(b1-4)GlcNAc
# Method in brief: as §1
# [34] = molecular target: Neu5Ac(a2-6)Gal(b1-4)GlcNAc(b1-2)Man(a1-3)[Neu5Ac(a2-6)Gal(b1-4)GlcNAc(b1-2)Man(a1-6)]Man(b1-4)GlcNAc(b1-4)[Fuc(a1-6)]GlcNAc
# Method in brief: as §1
# [35] = molecular target: Neu5Ac(a2-6)Gal(b1-4)GlcNAc(b1-2)Man(a1-6)Man(b1-4)GlcNAc(b1-4)GlcNAc
# Method in brief: as §1
# [36] = molecular target: Neu5Ac(a2-6)Gal(b1-4)GlcNAc(b1-2)Man(a1-6)[Gal(b1-4)GlcNAc(b1-2)Man(a1-3)]Man(b1-4)GlcNAc(b1-4)GlcNAc
# Method in brief: as §1
# [37] = molecular target: Neu5Ac(a2-6)Gal(b1-4)GlcNAc(b1-2)Man(a1-6)[GlcNAc(b1-2)Man(a1-3)]Man(b1-4)GlcNAc(b1-4)GlcNAc
# Method in brief: as §1
# [38] = molecular target: Neu5Ac(a2-6)Gal(b1-4)GlcNAc(b1-2)Man(a1-6)[Man(a1-3)]Man(b1-4)GlcNAc(b1-4)GlcNAc
# Method in brief: as §1
# [39] = molecular target: Neu5Ac(a2-6)Gal(b1-4)GlcNAc(b1-2)[Neu5Ac(a2-6)Gal(b1-4)GlcNAc(b1-4)]Man(a1-3)[GlcNAc(b1-4)][Neu5Ac(a2-6)Gal(b1-4)GlcNAc(b1-2)[Neu5Ac(a2-6)Gal(b1-4)GlcNAc(b1-6)]Man(a1-6)]Man(b1-4)GlcNAc(b1-4)GlcNAc
# Method in brief: as §1
# [40] = molecular target: Neu5Ac(a2-6)Gal(b1-4)GlcNAc(b1-2)[Neu5Ac(a2-6)Gal(b1-4)GlcNAc(b1-4)]Man(a1-3)[GlcNAc(b1-4)][Neu5Ac(a2-6)Gal(b1-4)GlcNAc(b1-4)Man(a1-6)]Man(b1-4)GlcNAc(b1-4)GlcNAc
# Method in brief: as §1
# [41] = molecular target: Neu5Ac(a2-6)Gal(b1-4)GlcNAc(b1-2)[Neu5Ac(a2-6)Gal(b1-4)GlcNAc(b1-6)]Man(a1-6)[Neu5Ac(a2-6)Gal(b1-4)GlcNAc(b1-2)Man(a1-3)][GlcNAc(b1-4)]Man(b1-4)GlcNAc(b1-4)GlcNAc
# Method in brief: as §1
# [42] = molecular target: Neu5Ac(a2-6)Gal(b1-4)GlcNAc(b1-3)Gal(b1-3)GlcNAc
# Method in brief: as §1
# [43] = molecular target: Neu5Ac(a2-6)Gal(b1-4)GlcNAc(b1-3)Gal(b1-4)GlcNAc
# Method in brief: as §1
# [44] = molecular target: Neu5Ac(a2-6)Gal(b1-4)GlcNAc(b1-3)Gal(b1-4)GlcNAc(b1-2)Man(a1-3)[Neu5Ac(a2-6)Gal(b1-4)GlcNAc(b1-3)Gal(b1-4)GlcNAc(b1-2)Man(a1-6)]GalNAc
# Method in brief: as §1
# [45] = molecular target: Neu5Ac(a2-6)Gal(b1-4)GlcNAc(b1-3)Gal(b1-4)GlcNAc(b1-3)Gal(b1-4)GlcNAc
# Method in brief: as §1
binder,measurement,setting,value
B1,glycan array binding signal (z-score),[1],-0.273
same,glycan array binding signal (z-score),[2],0.961
same,glycan array binding signal (z-score),[3],0.983
same,glycan array binding signal (z-score),[4],-0.26
same,glycan array binding signal (z-score),[5],-0.418
same,glycan array binding signal (z-score),[6],0.688
same,glycan array binding signal (z-score),[7],-0.519
same,glycan array binding signal (z-score),[8],0.553
same,glycan array binding signal (z-score),[9],0.645
same,glycan array binding signal (z-score),[10],0.654
same,glycan array binding signal (z-score),[11],0.675
same,glycan array binding signal (z-score),[12],-0.164
same,glycan array binding signal (z-score),[13],0.316
same,glycan array binding signal (z-score),[14],0.623
same,glycan array binding signal (z-score),[15],0.309
same,glycan array binding signal (z-score),[16],0.655
same,glycan array binding signal (z-score),[17],0.482
same,glycan array binding signal (z-score),[18],-0.883
same,glycan array binding signal (z-score),[19],-0.052
same,glycan array binding signal (z-score),[20],0.891
same,glycan array binding signal (z-score),[21],-0.484
same,glycan array binding signal (z-score),[22],0.007
same,glycan array binding signal (z-score),[23],-0.472
same,glycan array binding signal (z-score),[24],-0.411
same,glycan array binding signal (z-score),[25],-0.343
same,glycan array binding signal (z-score),[26],-0.18
same,glycan array binding signal (z-score),[27],-0.42
same,glycan array binding signal (z-score),[28],-0.154
same,glycan array binding signal (z-score),[29],-0.288
same,glycan array binding signal (z-score),[30],-0.701
same,glycan array binding signal (z-score),[31],0.53
same,glycan array binding signal (z-score),[32],-0.456
same,glycan array binding signal (z-score),[33],-0.19
same,glycan array binding signal (z-score),[34],-0.442
same,glycan array binding signal (z-score),[35],-0.266
same,glycan array binding signal (z-score),[36],0.162
same,glycan array binding signal (z-score),[37],0.108
same,glycan array binding signal (z-score),[38],0.105
same,glycan array binding signal (z-score),[39],0.065
same,glycan array binding signal (z-score),[40],-0.179
same,glycan array binding signal (z-score),[41],-0.032
same,glycan array binding signal (z-score),[42],-0.157
same,glycan array binding signal (z-score),[43],-0.218
same,glycan array binding signal (z-score),[44],0.552
same,glycan array binding signal (z-score),[45],1.37

# As a working copy, part of the list above:
binder,measurement,setting,value
B1,glycan array binding signal (z-score),[44],0.552
same,glycan array binding signal (z-score),[45],1.37
